{"sequences": {"note": "Amino acid sequences for entries named in this document (tags omitted). Residues count along the entry.", "UniProt Q5VTR2, residues 321-900": "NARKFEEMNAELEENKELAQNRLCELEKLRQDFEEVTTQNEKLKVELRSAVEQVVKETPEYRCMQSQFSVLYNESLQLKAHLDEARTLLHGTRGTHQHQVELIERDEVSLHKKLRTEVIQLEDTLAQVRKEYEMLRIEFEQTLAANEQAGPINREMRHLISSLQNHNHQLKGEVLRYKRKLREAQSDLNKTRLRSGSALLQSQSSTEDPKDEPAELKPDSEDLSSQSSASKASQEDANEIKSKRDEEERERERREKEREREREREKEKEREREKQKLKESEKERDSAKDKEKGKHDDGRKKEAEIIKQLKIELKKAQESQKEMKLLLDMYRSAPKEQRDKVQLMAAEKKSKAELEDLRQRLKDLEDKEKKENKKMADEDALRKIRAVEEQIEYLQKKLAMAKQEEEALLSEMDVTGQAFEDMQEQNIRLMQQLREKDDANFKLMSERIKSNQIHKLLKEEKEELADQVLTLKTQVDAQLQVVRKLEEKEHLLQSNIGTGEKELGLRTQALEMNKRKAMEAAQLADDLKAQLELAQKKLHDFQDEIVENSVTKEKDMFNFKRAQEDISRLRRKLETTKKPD", "UniProt O75150, residues 327-926": "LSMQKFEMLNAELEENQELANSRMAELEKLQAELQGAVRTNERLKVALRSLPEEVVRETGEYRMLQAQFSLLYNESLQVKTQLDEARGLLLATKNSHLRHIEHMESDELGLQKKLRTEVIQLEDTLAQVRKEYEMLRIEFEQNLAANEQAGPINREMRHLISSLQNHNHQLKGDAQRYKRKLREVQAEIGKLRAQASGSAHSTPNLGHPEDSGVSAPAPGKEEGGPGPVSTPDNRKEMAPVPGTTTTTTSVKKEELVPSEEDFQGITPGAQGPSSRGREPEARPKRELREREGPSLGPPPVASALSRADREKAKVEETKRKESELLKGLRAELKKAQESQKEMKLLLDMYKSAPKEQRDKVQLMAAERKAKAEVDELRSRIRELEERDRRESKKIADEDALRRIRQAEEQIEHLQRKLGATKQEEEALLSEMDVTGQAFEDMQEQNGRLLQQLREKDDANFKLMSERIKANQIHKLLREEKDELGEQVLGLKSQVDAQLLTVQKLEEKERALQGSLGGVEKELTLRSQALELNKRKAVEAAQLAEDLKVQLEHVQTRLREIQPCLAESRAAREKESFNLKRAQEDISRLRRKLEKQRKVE"}, "source": "paper PMC12802937", "target": "strep-SUMO-fused RNF20 residues 321–900 (human) (UniProt Q5VTR2)", "assay": "sequential affinity co-purification; mixed E. coli cell extracts; strep-tactin resin (strep-SUMO-RNF20), then dextrin resin (MBP-RNF40), gel filtration", "note": "No constants are given. Whether binding was seen depends on the method and setting. Some entries that bind do so weakly or less than the wild type.", "data": [{"substance": "MBP-fused RNF40 residues 327–926 (from UniProt O75150 327-926) (domain or fragment)", "values": [{"measurement": "binding", "result": "binds"}]}]}
